Results on one molecule are retold here after patent publication US20170275356A1.

No constants are given. Whether binding was seen depends on the method and setting. Binding calls can cover weak binding; strength is not graded here.

The target in test [1] is cynomolgus monkey IL-23 (cynomolgus monkey). Kind of test: SPR (BIAcore), 37 °C. (In general: SPR reads the build-up and loss of mass on a sensor chip optically.)
The target in another test is rabbit IL-23 (rabbit). Description: SPR (BIAcore), 37 °C.

B1: Antibody I (antibody, human IgG4 S228P, kappa, F234A L235A, V domains shown)
VH: QVQLVQSGAEVKKPGSSVKVSCKASGYKFTRYVMHWVRQAPGQGLEWMGYINPYNDGTNYNEKFKGRVTITADKSTSTAYMELSSLRSEDTAVYYCARNWDTGLWGQGTTVTVSS
VL: DIQMTQSPSSLSASVGDRVTITCKASDHILKFLTWYQQKPGKAPKLLIYGATSLETGVPSRFSGSGSGTDFTLTISSLQPEDFATYYCQMYWSTPFTFGGGTKVEIKR
In the case of B1, the binding result (in test [1]; in the test with rabbit IL-23 (rabbit)) was “binds” in each case.
